Measurements reported in PubChem BioAssay AID1259405 (NCATS, 2018)
Screen: 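Mouse-designed siRNAs used to find CHO productivity engineering targets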 (primary screen). System: Chinese hamster CHO-K1 ovary cells with stable secreted eGFP expression. Knock-down reagent: single siRNA against mouse genes, 0.8 pmol siRNA per well (2 µl of 400 nM stock). Timing: 3 days. Detection: 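Per-well intracellular GFP measured by laser scanning cytometry, plus viability from ATP luminescence, each relative to plate median of non-targeting control wells, in %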. Direction: GFP, % of control: higher = more GFP per well, higher productivity; viability (ATP), % of control: higher = more viable cells (more ATP). Call rule: 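Called active when intracellular GFP, relative to negative control, is at or above 120%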.
This is an unselected part of about 50,000 reagents. About 4,000 of all reagents (8%) count as active. 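Mouse siRNA library applied to hamster cells; one well for each siRNA.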 Entries without a mark were called inactive.

Target gene	PubChem SID	GFP, % of control	viability (ATP), % of control
Alg13	SID363542277	69.2	67
Alg13	SID363551768	61.4	40.7
Alg13	SID363559373	76.6	65.4
H1f4	SID363546018	91.3	30.1
H1f4	SID363549531	89.9	101
H1f4	SID363563337	34.1	55.4
Zim1	SID363541097	33.3	38.6
Zim1	SID363555724	71.1	92.2
Zim1	SID363566013	91.5	85.3
Ftl2-ps	SID363539918	55.2	74.2
Ftl2-ps	SID363561219	43.1	66.8
Ftl2-ps	SID363564255	80.7	92.7
Hbq1b	SID363570180	94.2	78.3
Hbq1b	SID363576516	104	76.5
Hbq1b	SID363579684	75.9	65.2
Gns	SID363569841	65.9	65.5
Gns	SID363576881	128 (active)	87.1
Gns	SID363578289	126 (active)	194
Tmem132d	SID363550328	64.6	91.4
Tmem132d	SID363564837	70.3	81.2
Tmem132d	SID363588382	93.4	109
Mrpl4	SID363553916	115	105
Mrpl4	SID363561873	105	66.7
Mrpl4	SID363565611	50	54.6
Smyd1	SID363584503	83.5	78.3
Smyd1	SID363589533	218 (active)	124
Hyal2	SID363569885	115	88.2
Hyal2	SID363576925	116	74.8
Hyal2	SID363578333	92.6	124
Mob3b	SID363573284	99.3	87.3
Mob3b	SID363588523	121 (active)	81.1
Cacna1h	SID363547304	99.9	107
Cacna1h	SID363558073	66.9	79.6
Cacna1h	SID363559831	74.5	88.1
Cdhr5	SID363541593	67.7	73.8
Cdhr5	SID363553185	77.1	59
Cdhr5	SID363566509	67.3	64.9
Pcm1	SID363581726	69.6	58
Pcm1	SID363589220	97.1	46.1
Cpd	SID363574289	70.8	58.7
Cpd	SID363575345	181 (active)	75.7
Cpd	SID363579921	41.8	38.6
Brinp3	SID363546822	95.8	62.6
Brinp3	SID363548578	92.6	91.3
Brinp3	SID363560756	78.8	82.9
Slc30a3	SID363574899	82.9	69.8
Slc30a3	SID363575955	49.2	75.3
Slc30a3	SID363580531	66.5	46.4
Ppm1n	SID363547572	132 (active)	88.3
Ppm1n	SID363558341	63.2	53.5
Ppm1n	SID363560099	73.4	93.9
Ubr2	SID363572536	86.3	83.8
Ubr2	SID363577816	107	86.4
Ubr2	SID363582040	94.9	60.5
Hspe1	SID363572633	76.5	69.4
Hspe1	SID363577913	83.6	49.7
Hspe1	SID363582137	108	110
Zfp101	SID363541121	31.2	21.6
Zfp101	SID363555748	79.8	77.9
Zfp101	SID363566037	77.4	77.3
Lcn9	SID363545570	119	129
Lcn9	SID363549083	118	93.2
Lcn9	SID363562889	76.9	54
Ppp1r1a	SID363575242	80.2	39.8
Ppp1r1a	SID363580874	96.8	76.4
Ppp1r1a	SID363582986	113	70.7
Fpr1	SID363571383	99.3	74
Fpr1	SID363571735	110	77.4
Fpr1	SID363572087	74.7	58.2
Obp1a	SID363545697	81.4	50.1
Obp1a	SID363549210	93.2	92.8
Obp1a	SID363563016	48.9	53.5
Spty2d1	SID363552301	108	120
Spty2d1	SID363585437	93.8	90
Spty2d1	SID363585788	95.7	125
Or13e8	SID363544755	63.2	41.9
Or13e8	SID363551083	70.1	61.1
Or13e8	SID363557632	101	128
Cd55b	SID363553614	80.5	69.4
Cd55b	SID363561571	79.9	70.6
Cd55b	SID363565309	59.3	47.2
Rasa3	SID363570162	81.3	81.5
Rasa3	SID363576498	65.2	53.3
Rasa3	SID363579666	78.3	62.1
